We go through 2 molecules from publication PMC5065529, “Wnt Signalosome Assembly by DEP Domain Swapping of Dishevelled” (Molecular Cell, 2016).

By UniProt entry, the sequences of proteins in these tests, tags left out. Where a name states a change or a piece, a line headed by the entry shows the natural chain unless it says otherwise. Chains listed by the source or under a name are the forms on record and can include a tag or linker. Residues count along the entry.
SNAP-FZD5 (Frizzled 5), wild type (Q13467, residues 27-585): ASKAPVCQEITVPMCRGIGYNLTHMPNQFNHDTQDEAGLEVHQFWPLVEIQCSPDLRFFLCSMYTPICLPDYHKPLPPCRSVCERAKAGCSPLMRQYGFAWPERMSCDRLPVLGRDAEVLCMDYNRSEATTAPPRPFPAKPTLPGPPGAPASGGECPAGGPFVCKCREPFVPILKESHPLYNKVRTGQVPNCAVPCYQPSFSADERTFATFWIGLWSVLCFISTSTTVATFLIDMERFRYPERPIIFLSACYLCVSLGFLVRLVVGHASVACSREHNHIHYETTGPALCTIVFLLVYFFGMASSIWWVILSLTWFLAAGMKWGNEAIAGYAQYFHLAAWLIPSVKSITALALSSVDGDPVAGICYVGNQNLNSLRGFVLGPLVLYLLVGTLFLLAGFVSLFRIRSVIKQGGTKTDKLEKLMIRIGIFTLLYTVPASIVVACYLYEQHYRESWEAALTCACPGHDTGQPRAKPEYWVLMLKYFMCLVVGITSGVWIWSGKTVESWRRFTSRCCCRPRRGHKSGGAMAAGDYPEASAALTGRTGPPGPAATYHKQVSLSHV
SNAP-FZD5 L446A (Q13467, form named): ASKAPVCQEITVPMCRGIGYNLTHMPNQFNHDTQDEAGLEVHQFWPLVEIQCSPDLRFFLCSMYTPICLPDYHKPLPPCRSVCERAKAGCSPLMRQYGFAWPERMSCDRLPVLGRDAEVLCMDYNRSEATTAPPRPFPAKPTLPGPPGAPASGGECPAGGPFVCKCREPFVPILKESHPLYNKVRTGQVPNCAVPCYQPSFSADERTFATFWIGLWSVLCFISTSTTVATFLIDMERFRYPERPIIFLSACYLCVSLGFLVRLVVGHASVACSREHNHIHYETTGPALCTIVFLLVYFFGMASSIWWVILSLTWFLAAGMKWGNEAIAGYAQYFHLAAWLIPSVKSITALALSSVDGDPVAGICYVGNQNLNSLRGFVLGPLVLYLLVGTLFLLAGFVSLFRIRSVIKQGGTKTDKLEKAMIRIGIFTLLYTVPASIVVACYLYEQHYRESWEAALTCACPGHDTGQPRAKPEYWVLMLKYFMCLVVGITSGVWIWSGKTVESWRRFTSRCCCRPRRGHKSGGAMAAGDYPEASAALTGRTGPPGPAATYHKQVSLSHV
SNAP-FZD5 L443A (Q13467, form named): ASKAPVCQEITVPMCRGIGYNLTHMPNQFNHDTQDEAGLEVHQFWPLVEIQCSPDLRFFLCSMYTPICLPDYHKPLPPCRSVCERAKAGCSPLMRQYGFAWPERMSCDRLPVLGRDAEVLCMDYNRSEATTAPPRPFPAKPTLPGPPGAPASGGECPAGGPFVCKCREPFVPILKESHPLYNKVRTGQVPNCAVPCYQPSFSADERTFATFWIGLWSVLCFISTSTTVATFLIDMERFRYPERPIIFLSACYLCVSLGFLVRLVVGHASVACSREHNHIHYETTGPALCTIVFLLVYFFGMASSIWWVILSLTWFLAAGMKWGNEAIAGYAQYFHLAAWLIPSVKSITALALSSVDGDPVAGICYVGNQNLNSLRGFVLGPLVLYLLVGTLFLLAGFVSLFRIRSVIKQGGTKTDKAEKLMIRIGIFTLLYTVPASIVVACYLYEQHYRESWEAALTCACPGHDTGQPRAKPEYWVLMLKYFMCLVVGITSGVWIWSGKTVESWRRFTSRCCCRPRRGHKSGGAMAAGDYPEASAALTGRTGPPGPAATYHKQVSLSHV

Holding throughout (assay): FZD-dependent membrane translocation (plasma membrane recruitment) assay, confocal microscopy; GFP-tagged DVL2, DEP or PDZ co-expressed with SNAP-FZD5 (WT or mutant) in transfected cells (HeLa in the legends, HEK293T in the text), fixed and stained with α-SNAP; with or without Wnt3a-conditioned medium for 30 min
The target in experiment [1] is SNAP-FZD5 (Frizzled 5), wild type (human) (UniProt Q13467).
For another experiment, the target named is SNAP-FZD5 L446A (human) (UniProt Q13467).
The target in the next experiment is SNAP-FZD5 L443A (human) (UniProt Q13467).

These are yes or no findings as the source states them, for the method shown. Some binding calls cover weakened binding; strength is not graded here. Sequences can lack the tags named with a protein.

B1: DEP_(414–507)-GFP, minimal DEP domain of DVL2 (domain or fragment, UniProt O14641 414-507)
chain: GRGLSVHTDMASVTKAMAAPESGLEVRDRMWLKITIPNAFLGSDVVDWLYHHVEGFPERREARKYASGLLKAGLIRHTVNKITFSEQCYYVFGD
With B1, the binding entry in experiment [1] is on record as “binds”; with SNAP-FZD5 L446A (human), “no binding”; with SNAP-FZD5 L443A (human) it was “no binding”.

B2: PDZ_(248–353)-GFP, minimal PDZ domain of DVL2 (domain or fragment, UniProt O14641 248-353)
chain: ERTSSFSSVTDSTMSLNIITVTLNMEKYNFLGISIVGQSNERGDGGIYIGSIMKGGAVAADGRIEPGDMLLQVNDMNFENMSNDDAVRVLRDIVHKPGPIVLTVAK
In the case of B2, in experiment [1], the binding entry is given as “no binding”.
